Reference: doi:10.1101/2024.10.25.620210

Legend:
[1] = biological target: T1, PAP8 split-YFP fusion (BiFC of Figure 5d) (Arabidopsis thaliana) (UniProt Q9XI19); assay: split reporter
T1 sequence: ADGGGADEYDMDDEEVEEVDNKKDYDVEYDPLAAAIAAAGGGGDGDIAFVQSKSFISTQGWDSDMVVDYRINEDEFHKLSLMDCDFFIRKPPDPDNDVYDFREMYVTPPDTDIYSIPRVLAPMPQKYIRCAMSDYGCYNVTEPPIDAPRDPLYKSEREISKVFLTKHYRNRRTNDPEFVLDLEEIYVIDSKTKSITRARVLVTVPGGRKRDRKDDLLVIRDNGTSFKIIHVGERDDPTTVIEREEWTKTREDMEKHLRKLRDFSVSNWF

[2] = biological target: T2, β’ subunit of the Sinapis alba plastid-encoded RNA polymerase (SaPEP) (Sinapis alba) (UniProt P46819); assay: cryo-EM structure
T2 sequence: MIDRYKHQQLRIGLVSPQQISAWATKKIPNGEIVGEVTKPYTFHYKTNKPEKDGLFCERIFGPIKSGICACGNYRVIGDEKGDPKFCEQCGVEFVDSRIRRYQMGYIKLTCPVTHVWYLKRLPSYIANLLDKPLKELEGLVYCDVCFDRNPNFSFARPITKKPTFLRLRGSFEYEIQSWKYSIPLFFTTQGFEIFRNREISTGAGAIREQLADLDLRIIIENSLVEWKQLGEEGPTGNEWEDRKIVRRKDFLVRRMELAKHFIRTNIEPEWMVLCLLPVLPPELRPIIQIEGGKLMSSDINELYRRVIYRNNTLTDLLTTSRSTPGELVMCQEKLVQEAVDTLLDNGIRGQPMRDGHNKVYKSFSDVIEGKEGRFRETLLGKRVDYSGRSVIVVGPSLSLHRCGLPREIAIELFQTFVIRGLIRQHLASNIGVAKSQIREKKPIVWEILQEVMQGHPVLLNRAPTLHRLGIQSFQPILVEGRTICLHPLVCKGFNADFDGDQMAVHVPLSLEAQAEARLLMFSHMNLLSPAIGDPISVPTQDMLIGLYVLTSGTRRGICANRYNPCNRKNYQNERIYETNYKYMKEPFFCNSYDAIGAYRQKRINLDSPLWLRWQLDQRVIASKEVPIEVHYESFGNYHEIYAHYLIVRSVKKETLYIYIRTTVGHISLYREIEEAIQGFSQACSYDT

[3] = biological target: T3, β’’ subunit of the Sinapis alba plastid-encoded RNA polymerase (SaPEP) (Sinapis alba) (UniProt Q9THV5); assay: cryo-EM structure
T3 sequence: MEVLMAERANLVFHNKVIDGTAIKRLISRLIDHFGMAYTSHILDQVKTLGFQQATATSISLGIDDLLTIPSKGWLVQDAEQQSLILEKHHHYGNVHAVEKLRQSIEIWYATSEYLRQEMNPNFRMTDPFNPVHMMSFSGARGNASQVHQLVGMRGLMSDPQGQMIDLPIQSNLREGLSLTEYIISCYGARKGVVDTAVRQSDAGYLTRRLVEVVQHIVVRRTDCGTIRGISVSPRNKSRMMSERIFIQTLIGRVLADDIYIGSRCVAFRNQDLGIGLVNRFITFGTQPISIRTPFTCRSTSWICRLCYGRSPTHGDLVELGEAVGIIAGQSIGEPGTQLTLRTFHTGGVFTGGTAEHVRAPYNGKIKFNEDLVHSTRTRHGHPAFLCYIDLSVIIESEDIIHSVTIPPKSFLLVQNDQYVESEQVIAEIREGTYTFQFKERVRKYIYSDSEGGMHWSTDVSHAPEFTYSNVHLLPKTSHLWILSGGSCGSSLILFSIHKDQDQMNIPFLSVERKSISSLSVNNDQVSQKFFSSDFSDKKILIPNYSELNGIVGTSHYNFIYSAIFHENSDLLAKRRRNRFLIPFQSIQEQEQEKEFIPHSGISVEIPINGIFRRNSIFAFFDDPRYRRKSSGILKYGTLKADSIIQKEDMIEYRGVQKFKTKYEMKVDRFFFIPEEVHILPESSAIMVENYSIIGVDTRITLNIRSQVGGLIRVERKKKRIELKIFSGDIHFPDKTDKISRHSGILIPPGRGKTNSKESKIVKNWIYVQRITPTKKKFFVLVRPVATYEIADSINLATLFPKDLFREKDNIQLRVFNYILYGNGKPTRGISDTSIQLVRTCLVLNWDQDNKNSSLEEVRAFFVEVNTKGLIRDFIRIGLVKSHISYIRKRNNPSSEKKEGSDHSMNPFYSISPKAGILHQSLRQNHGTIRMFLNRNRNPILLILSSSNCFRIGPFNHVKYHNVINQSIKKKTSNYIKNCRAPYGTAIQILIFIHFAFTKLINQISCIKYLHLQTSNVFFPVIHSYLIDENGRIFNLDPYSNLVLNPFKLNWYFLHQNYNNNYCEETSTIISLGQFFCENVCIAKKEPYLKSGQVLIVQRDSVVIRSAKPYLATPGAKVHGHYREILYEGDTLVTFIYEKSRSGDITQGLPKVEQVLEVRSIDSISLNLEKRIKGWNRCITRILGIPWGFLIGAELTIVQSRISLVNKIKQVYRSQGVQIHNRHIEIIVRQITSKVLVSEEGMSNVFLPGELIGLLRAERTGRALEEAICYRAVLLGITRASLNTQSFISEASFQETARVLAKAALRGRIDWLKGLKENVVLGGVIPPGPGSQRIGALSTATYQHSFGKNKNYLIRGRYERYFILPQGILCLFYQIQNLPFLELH

Row | binding [1] | binding [3] | Substance | further results
1 |  | binds | PRIN2/PAP15 of Sinapis alba | 
2 | binds |  | STICL split-YFP fusion (Arabidopsis thaliana) | 
3 |  | binds | pTAC18/PAP14 of Sinapis alba | 

More lines, now with the values behind:

Row | Substance | binding [1] | binding [3] | further results
4 | M24 split-YFP fusion (Arabidopsis thaliana) | binds |  | 
5 | PEP-associated protein 11 (PAP11, MurE-like protein) of Sinapis alba |  |  | binding [2]: binds
6 | pTAC18 split-YFP fusion (Arabidopsis thaliana) | binds |  | 

No constants are given. Whether binding was seen depends on the method and setting. Binding can be weak; no strength is given. For part of these data: In cells and extracts the contact can be indirect. For part of these data: Where a sequence is shown, tags or fusion partners need not be part of it.
